Data as given in article PMC7401804.
These are yes or no findings as the source states them, for the method shown. In cells and extracts the contact can be indirect. Some binding calls cover weakened binding; strength is not graded here.

Protein sequences, listed by entry. Tags and fused reporters are not part of them.
UniProt Q8VI36: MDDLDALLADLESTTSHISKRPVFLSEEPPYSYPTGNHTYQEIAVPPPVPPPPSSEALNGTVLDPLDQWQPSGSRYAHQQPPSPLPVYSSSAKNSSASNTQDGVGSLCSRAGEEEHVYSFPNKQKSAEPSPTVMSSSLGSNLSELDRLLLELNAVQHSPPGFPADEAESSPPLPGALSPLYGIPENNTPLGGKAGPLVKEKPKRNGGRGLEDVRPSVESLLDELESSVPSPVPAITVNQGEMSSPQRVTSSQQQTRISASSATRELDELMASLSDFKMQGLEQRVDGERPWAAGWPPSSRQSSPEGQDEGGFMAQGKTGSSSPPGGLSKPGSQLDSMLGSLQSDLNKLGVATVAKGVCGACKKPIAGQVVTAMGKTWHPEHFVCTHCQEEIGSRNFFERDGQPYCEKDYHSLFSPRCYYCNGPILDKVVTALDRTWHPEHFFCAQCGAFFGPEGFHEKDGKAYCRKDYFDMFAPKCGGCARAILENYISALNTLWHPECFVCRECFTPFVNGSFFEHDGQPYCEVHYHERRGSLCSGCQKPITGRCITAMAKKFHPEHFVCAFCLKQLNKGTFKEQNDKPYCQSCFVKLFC

Columns and labels:
[1] = target: paxillin (mouse (endogenous in TA muscle)) (UniProt Q8VI36); test: co-IP; endogenous paxillin immunoprecipitated with an anti-paxillin antibody from solubilized mouse TA skeletal muscle, Dynabeads Protein G; HDAC6 detected by Western blot
[2] = target: paxillin (mouse (endogenous in TA muscle)) (UniProt Q8VI36); test: proximity ligation; Duolink PLA (anti-Mouse MINUS, anti-Rabbit PLUS probes) with antibodies against HDAC6 and paxillin in isolated fibers of mouse TA muscle, counterstained with α-BTX–A488

binding [1]: binds
binding [2]: binds
B1: HDAC6 (enzyme, UniProt Q9Z2V5 1-1149)
chain: MTSTGQDSSTRQRKSRHNPQSPLQESSATLKRGGKKCAVPHSSPNLAEVKKKGKMKKLSQPAEEDLVVGLQGLDLNPETRVPVGTGLVFDEQLNDFHCLWDDSFPESPERLHAIREQLILEGLLGRCVSFQARFAEKEELMLVHSLEYIDLMETTQYMNEGELRVLAETYDSVYLHPNSYSCACLATGSVLRLVDALMGAEIRNGMAVIRPPGHHAQHNLMDGYCMFNHLAVAARYAQKKHRIQRVLIVDWDVHHGQGTQFIFDQDPSVLYFSIHRYEHGRFWPHLKASNWSTIGFGQGQGYTINVPWNQTGMRDADYIAAFLHILLPVASEFQPQLVLVAAGFDALHGDPKGEMAATPAGFAHLTHLLMGLAGGKLILSLEGGYNLRALAKGVSASLHTLLGDPCPMLESCVVPCASAQTSIYCTLEALEPFWEVLERSVETQEEDEVEEAVLEEEEEEGGWEATALPMDTWPLLQNRTGLVYDEKMMSHCNLWDNHHPETPQRILRIMCHLEEVGLAARCLILPARPALDSELLTCHSAEYVEHLRTTEKMKTRDLHREGANFDSIYICPSTFACAKLATGAACRLVEAVLSGEVLNGIAVVRPPGHHAEPNAACGFCFFNSVAVAARHAQIIAGRALRILIVDWDVHHGNGTQHIFEDDPSVLYVSLHRYDRGTFFPMGDEGASSQVGRDAGIGFTVNVPWNGPRMGDADYLAAWHRLVLPIAYEFNPELVLISAGFDAAQGDPLGGCQVTPEGYAHLTHLLMGLAGGRIILILEGGYNLASISESMAACTHSLLGDPPPQLTLLRPPQSGALVSISEVIQVHRKYWRSLRLMKMEDKEECSSSRLVIKKLPPTASPVSAKEMTTPKGKVPEESVRKTIAALPGKESTLGQAKSKMAKAVLAQGQSSEQAAKGTTLDLATSKETVGGATTDLWASAAAPENFPNQTTSVEALGETEPTPPASHTNKQTTGASPLQGVTAQQSLQLGVLSTLELSREAEEAHDSEEGLLGEAAGGQDMNSLMLTQGFGDFNTQDVFYAVTPLSWCPHLMAVCPIPAAGLDVSQPCKTCGTVQENWVCLTCYQVYCSRYVNAHMVCHHEASEHPLVLSCVDLSTWCYVCQAYVHHEDLQDVKNAAHQNKFGEDMPHSH
